According to patent US20170183640A1 (WISCONSIN ALUMNI RESEARCH FOUNDATION, published 2017):
These are yes or no findings as the source states them, for the method shown.

What was measured:
[1] = target: φW39 wild type Ref (φW39 phage full length Ref protein) (bacteriophage φW39) (UniProt P35926); assay: non-reducing SDS-PAGE with or without 10 mM DTT, self-association
[2] = target: φW39 wild type Ref (φW39 phage full length Ref protein) (bacteriophage φW39) (UniProt P35926); assay: DSG crosslinking, SDS-PAGE, self-association
[3] = target: φW39 ΔN21 Ref (bacteriophage φW39) (UniProt P35926); assay: non-reducing SDS-PAGE with or without 10 mM DTT, self-association
[4] = target: φW39 ΔN21 Ref (bacteriophage φW39) (UniProt P35926); assay: DSG crosslinking, SDS-PAGE, self-association
[5] = target: φW39 ΔN21 Ref (bacteriophage φW39) (UniProt P35926); assay: analytical size exclusion (FIG. 9), self-association, Example 6
[6] = target: φW39 ΔN47 Ref (bacteriophage φW39) (UniProt P35926); assay: non-reducing SDS-PAGE with or without 10 mM DTT, self-association
[7] = target: φW39 ΔN47 Ref (bacteriophage φW39) (UniProt P35926); assay: DSG crosslinking, SDS-PAGE, self-association
[8] = target: φW39 ΔN47 Ref (bacteriophage φW39) (UniProt P35926); assay: analytical size exclusion (FIG. 9), self-association, Example 6

B1: φW39 wild type Ref (φW39 phage full length Ref protein) (enzyme)
chain: MKTIEQKLEQRREWQKAARERAIARQREKLADPAWRESQYQKMRDSIDRRIAKQKERPPASKTRKSAVKIKSRGLKGRTPTAEERTIANALGTLPCIACYMHGVISEEVSLHHISGRTAPGCHKKQLPLCRWHHQHAAPAEVREKYPWLVPVHADGVVGGKKEFTLLNKSEMELLADAYEMANIMH
notes: Full-length native protein
For B1, which binding [1] is on record?
Its binding is “no binding”.

What about the binding [2] of the same binder?
The binding was “no binding”.

B2: φW39 ΔN21 Ref (enzyme)
chain: AIARQREKLADPAWRESQYQKMRDSIDRRIAKQKERPPASKTRKSAVKIKSRGLKGRTPTAEERTIANALGTLPCIACYMHGVISEEVSLHHISGRTAPGCHKKQLPLCRWHHQHAAPAEVREKYPWLVPVHADGVVGGKKEFTLLNKSEMELLADAYEMANIMH
notes: Plasmid pEAW886; The construct starts with a Met codon from the NdeI site
B2 was tested. Which binding [3] did it give?
The binding was “no binding”.

What about the binding [4] of the same binder?
The binding was “no binding”.

What about the binding [5] of the same binder?
The binding was “no binding”.

B3: φW39 ΔN47 Ref (enzyme)
chain: DRRIAKQKERPPASKTRKSAVKIKSRGLKGRTPTAEERTIANALGTLPCIACYMHGVISEEVSLHHISGRTAPGCHKKQLPLCRWHHQHAAPAEVREKYPWLVPVHADGVVGGKKEFTLLNKSEMELLADAYEMANIMH
notes: Plasmid pEAW865; The construct starts with a Met codon from the NdeI site
Which binding [6] does the source give for B3 here?
Its binding is “no binding”.

And the binding [7]?
Its binding is “no binding”.

What about the binding [8] of the same binder?
Its binding is “no binding”.
